# In the supplement of paper PMC8728848:
# Some of the results follow.
# B1: TbCVNHOa (Tuber borchii), Q5MK11 (protein)
# chain: MSYADSSRNAVLTNGGRTLRAECRNADGNWVTSELDLDTCIGNPNGFLGWGMQNFSHSSEDIKLEEGGRKLTCRPKTVDGGFRERQGIDLNRIQNVNGRLVFQ
# Assays:
# Assay in all cases: glycan array binding signal (z-score within array); higher = stronger binding
# Conditions in all cases: glycan notation: IUPAC condensed, linker removed
# Fuc(a1-2)Gal = target: Fuc(a1-2)Gal
# Procedure, shortened: (§1)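 Negative Z-scores can be read as non-binding. The Z-score is calculated within each array and then averaged across arrays of one protein sequence at different concentrations or buffers and across linkers. Arrays, 3228 in all, were curated from the Consortium for Functional Glycomics database and kept only where the protein sequence was available.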
# Fuc(a1-2)Gal(b1-3)GalNAc = target: Fuc(a1-2)Gal(b1-3)GalNAc
# Procedure, shortened: as §1
# [1] = target: Fuc(a1-2)Gal(b1-3)GalNAc(b1-3)Gal
# Procedure, shortened: as §1
# [2] = target: Fuc(a1-2)Gal(b1-3)GalNAc(b1-3)Gal(a1-4)Gal(b1-4)Glc
# Procedure, shortened: as §1
# [3] = target: Fuc(a1-2)Gal(b1-3)GalNAc(b1-4)[Neu5Ac(a2-3)]Gal(b1-4)Glc
# Procedure, shortened: as §1
# Fuc(a1-2)Gal(b1-3)GlcNAc = target: Fuc(a1-2)Gal(b1-3)GlcNAc
# Procedure, shortened: as §1
# [4] = target: Fuc(a1-2)Gal(b1-3)GlcNAc(b1-3)Gal(b1-4)Glc
# Procedure, shortened: as §1
# [5] = target: Fuc(a1-2)Gal(b1-3)[Fuc(a1-4)]GlcNAc
# Procedure, shortened: as §1
# Fuc(a1-2)Gal(b1-4)Glc = target: Fuc(a1-2)Gal(b1-4)Glc
# Procedure, shortened: as §1
# Fuc(a1-2)Gal(b1-4)Glc6S = target: Fuc(a1-2)Gal(b1-4)Glc6S
# Procedure, shortened: as §1
# Fuc(a1-2)Gal(b1-4)GlcNAc = target: Fuc(a1-2)Gal(b1-4)GlcNAc
# Procedure, shortened: as §1
# [6] = target: Fuc(a1-2)Gal(b1-4)GlcNAc(b1-2)Man(a1-3)[Fuc(a1-2)Gal(b1-4)GlcNAc(b1-2)Man(a1-6)]Man(b1-4)GlcNAc(b1-4)GlcNAc
# Procedure, shortened: as §1
# [7] = target: Fuc(a1-2)Gal(b1-4)GlcNAc(b1-2)Man(a1-6)[Gal(b1-4)GlcNAc(b1-2)Man(a1-3)]Man(b1-4)GlcNAc(b1-4)GlcNAc
# Procedure, shortened: as §1
# [8] = target: Fuc(a1-2)Gal(b1-4)GlcNAc(b1-3)Gal(b1-4)GlcNAc
# Procedure, shortened: as §1
# [9] = target: Fuc(a1-2)Gal(b1-4)GlcNAc(b1-3)Gal(b1-4)GlcNAc(b1-3)Gal(b1-4)GlcNAc
# Procedure, shortened: as §1
# [10] = target: Fuc(a1-2)Gal(b1-4)GlcNAc6S
# Procedure, shortened: as §1
# [11] = target: Fuc(a1-2)Gal(b1-4)[Fuc(a1-3)]GlcNAc
# Procedure, shortened: as §1
# [12] = target: Fuc(a1-2)Gal(b1-4)[Fuc(a1-3)]GlcNAc(b1-3)Gal(b1-4)[Fuc(a1-3)]GlcNAc
# Procedure, shortened: as §1
# [13] = target: Fuc(a1-2)Gal(b1-4)[Fuc(a1-3)]GlcNAc(b1-3)Gal(b1-4)[Fuc(a1-3)]GlcNAc(b1-3)Gal(b1-4)[Fuc(a1-3)]GlcNAc
# Procedure, shortened: as §1
# Fuc(a1-2)Gal6S(b1-4)Glc = target: Fuc(a1-2)Gal6S(b1-4)Glc
# Procedure, shortened: as §1
# [14] = target: Fuc(a1-2)Gal6S(b1-4)Glc6S
# Procedure, shortened: as §1
# [15] = target: Fuc(a1-2)Gal6S(b1-4)GlcNAc
# Procedure, shortened: as §1
# Fuc(a1-2)[Gal(a1-3)]Gal = target: Fuc(a1-2)[Gal(a1-3)]Gal
# Procedure, shortened: as §1
# [16] = target: Fuc(a1-2)[Gal(a1-3)]Gal(b1-3)GlcNAc
# Procedure, shortened: as §1
# [17] = target: Fuc(a1-2)[Gal(a1-3)]Gal(b1-4)Glc
# Procedure, shortened: as §1
# [18] = target: Fuc(a1-2)[Gal(a1-3)]Gal(b1-4)GlcNAc
# Procedure, shortened: as §1
# [19] = target: Fuc(a1-2)[Gal(a1-3)]Gal(b1-4)[Fuc(a1-3)]GlcNAc
# Procedure, shortened: as §1
# [20] = target: Fuc(a1-2)[Gal(a1-4)]Gal(b1-4)GlcNAc
# Procedure, shortened: as §1
# [21] = target: Fuc(a1-2)[GalNAc(a1-3)]Gal
# Procedure, shortened: as §1
# [22] = target: Fuc(a1-2)[GalNAc(a1-3)]Gal(b1-3)GlcNAc
# Procedure, shortened: as §1
binder,measurement,setting,value
B1,glycan array binding signal (z-score),Fuc(a1-2)Gal,-0.164
same,glycan array binding signal (z-score),Fuc(a1-2)Gal(b1-3)GalNAc,0.369
same,glycan array binding signal (z-score),[1],-0.109
same,glycan array binding signal (z-score),[2],0.222
same,glycan array binding signal (z-score),[3],-0.205
same,glycan array binding signal (z-score),Fuc(a1-2)Gal(b1-3)GlcNAc,0.083
same,glycan array binding signal (z-score),[4],1.94
same,glycan array binding signal (z-score),[5],-0.174
same,glycan array binding signal (z-score),Fuc(a1-2)Gal(b1-4)Glc,-0.265
same,glycan array binding signal (z-score),Fuc(a1-2)Gal(b1-4)Glc6S,-0.357
same,glycan array binding signal (z-score),Fuc(a1-2)Gal(b1-4)GlcNAc,-0.042
same,glycan array binding signal (z-score),[6],-0.564
same,glycan array binding signal (z-score),[7],-0.642
same,glycan array binding signal (z-score),[8],-0.226
same,glycan array binding signal (z-score),[9],-0.116
same,glycan array binding signal (z-score),[10],0.067
same,glycan array binding signal (z-score),[11],-0.224
same,glycan array binding signal (z-score),[12],0.224
same,glycan array binding signal (z-score),[13],-0.082
same,glycan array binding signal (z-score),Fuc(a1-2)Gal6S(b1-4)Glc,0.174
same,glycan array binding signal (z-score),[14],0.121
same,glycan array binding signal (z-score),[15],0.327
same,glycan array binding signal (z-score),Fuc(a1-2)[Gal(a1-3)]Gal,-0.087
same,glycan array binding signal (z-score),[16],-0.383
same,glycan array binding signal (z-score),[17],-0.167
same,glycan array binding signal (z-score),[18],-0.499
same,glycan array binding signal (z-score),[19],-0.023
same,glycan array binding signal (z-score),[20],0.988
same,glycan array binding signal (z-score),[21],0.21
same,glycan array binding signal (z-score),[22],0.743

# Copied from the listing (two entries):
binder,measurement,setting,value
B1,glycan array binding signal (z-score),[8],-0.226
same,glycan array binding signal (z-score),[9],-0.116
